Measurements published in publication PMC6338662.
These are yes or no findings as the source states them, for the method shown. In cells and extracts the contact can be indirect. Binding calls can cover weak binding; strength is not graded here.

Chains of the proteins cited; added tags and fusions are not shown. Lines headed by an entry give the natural chain unless they say otherwise; changes in a name come on top.
UniProt Q8NEM0: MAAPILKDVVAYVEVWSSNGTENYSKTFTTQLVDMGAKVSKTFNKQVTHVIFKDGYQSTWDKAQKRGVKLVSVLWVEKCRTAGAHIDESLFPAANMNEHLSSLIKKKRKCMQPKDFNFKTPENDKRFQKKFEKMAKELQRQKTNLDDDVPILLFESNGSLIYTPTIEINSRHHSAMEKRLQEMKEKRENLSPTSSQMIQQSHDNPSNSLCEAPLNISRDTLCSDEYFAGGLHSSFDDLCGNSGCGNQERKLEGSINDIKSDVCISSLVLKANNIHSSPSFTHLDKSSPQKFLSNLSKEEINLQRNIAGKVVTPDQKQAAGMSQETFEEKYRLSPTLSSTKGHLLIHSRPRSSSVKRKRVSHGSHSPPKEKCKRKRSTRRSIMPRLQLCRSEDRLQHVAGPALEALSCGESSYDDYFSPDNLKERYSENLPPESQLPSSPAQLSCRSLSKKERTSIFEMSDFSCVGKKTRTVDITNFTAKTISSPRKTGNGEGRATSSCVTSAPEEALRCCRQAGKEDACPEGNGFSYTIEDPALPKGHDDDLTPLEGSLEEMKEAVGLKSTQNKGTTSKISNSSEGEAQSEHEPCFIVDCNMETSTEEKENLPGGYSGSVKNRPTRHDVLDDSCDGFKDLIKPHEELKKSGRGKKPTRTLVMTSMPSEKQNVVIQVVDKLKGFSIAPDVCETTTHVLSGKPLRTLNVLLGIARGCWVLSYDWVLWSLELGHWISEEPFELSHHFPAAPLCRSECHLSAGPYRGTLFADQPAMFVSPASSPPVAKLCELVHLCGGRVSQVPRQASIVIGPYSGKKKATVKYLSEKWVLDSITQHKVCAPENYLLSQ
UniProt Q9UM11: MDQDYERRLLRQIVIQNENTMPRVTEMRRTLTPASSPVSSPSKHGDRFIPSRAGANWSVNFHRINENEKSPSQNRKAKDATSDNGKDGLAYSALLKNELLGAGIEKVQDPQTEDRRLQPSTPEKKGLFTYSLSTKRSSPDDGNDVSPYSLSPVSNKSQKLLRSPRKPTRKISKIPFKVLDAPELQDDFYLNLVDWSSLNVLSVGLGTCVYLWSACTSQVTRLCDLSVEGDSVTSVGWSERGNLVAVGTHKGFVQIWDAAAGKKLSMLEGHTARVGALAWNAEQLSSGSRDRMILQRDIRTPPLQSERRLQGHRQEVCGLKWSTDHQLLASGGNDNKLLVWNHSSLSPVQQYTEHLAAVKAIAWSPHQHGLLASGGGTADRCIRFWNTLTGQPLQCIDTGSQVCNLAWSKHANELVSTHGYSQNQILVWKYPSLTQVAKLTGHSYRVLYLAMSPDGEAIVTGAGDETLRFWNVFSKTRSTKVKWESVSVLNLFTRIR

Molecular target: GFP–MCPH1-L T753E (phosphomimetic of Thr754) (human) (UniProt Q8NEM0)
Assay: pull-down; GFP or GFP–MCPH1 variants immunoprecipitated from HEK293 lysate and held on GFP-Trap beads, incubated 3 h at 4°C with HEK293 cell extract containing FLAG–CDH1 (or CDH1 fragments) in NETN buffer (50 mM Tris pH 7.6, 150 mM NaCl, 1 mM EDTA, 1% NP-40); washed 3 times in TBST; Western blot; only the target purified

binding: binds
Substance: FLAG–CDH1 (from UniProt Q9UM11 1-496)
